Measured values reported in PubChem BioAssay AID1688 (National Center for Advancing Translational Sciences (NCATS), 2009).
In all, about 220,000 compounds went through this assay and about 2,400 (1.1%) were called active. Inconclusive results, whose numbers are uncertain, are shown with a selection of clear calls. Calls follow the shape of the dose curve; as a rule, active = well fitted inhibition curve with a large enough effect; inconclusive = small, poorly fitted or top-dose-only effect, or effect the other way; inactive = no such curve, though single readings can be large or run the other way. Where the call is inconclusive, the potency comes from a doubtful curve fit.

assay: qHTS Multiplex Assay to Identify Dual Action Probes in a Cell Model of Huntington: Aggregate Formation (GFP); conditions: PC12 HttQ103-GFP aggregates, Acumen cytometry, 40 h; activity change, negative = inhibition: at 46.1 µM (top of the series) unless noted; also: nearly all actives have a fitted effect of over 60% in size
Method in brief: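 Huntingtin Q103 exon 1–GFP aggregates in induced PC12 cells (100 nM tebufenozide) were quantified by cytometry from lysates, with compounds dosed in titration.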
% is scaled to controls: 0 for no effect and ±100 for the full control effect; potency is read from the fitted curve at half-maximal effect.

Compound | Potency | activity change, negative = inhibition
CC(C)c1[nH]nc2c1C(c1cccc(OC(=O)N3CCOCC3)c1)C(C#N)=C(N)O2 (stereo not given) | active: 3.16 µM | –
O=[N+]([O-])c1cncc([N+](=O)[O-])c1Nc1ccccc1Cl | inconclusive: 10 µM [activator, partial curve] | –
CCOC(=O)C1CCN(c2c(NCCC(C)C)c(=O)c2=O)CC1 | – | inactive: -13% [at 9.22 µM]
CN(Cc1nc(-c2cccnc2)no1)S(=O)(=O)c1ccc(Br)cc1 | active: 22.4 µM | –
CC(=O)N1NC(=Nc2ccccc2)SC1(C)C | – | inactive: 17.4% [at 9.22 µM]
CC(C)Nc1nc(NC(C)C)nc(Oc2ccc(=O)n(C)n2)n1 | inconclusive: 2.51 µM [activator, partial curve] | –
Cc1cc(CNC(=O)c2cccc([N+](=O)[O-])c2C)c2ccccc2n1 | inconclusive: 7.94 µM [inhibitor, single point] | –
CC(C)(C)NC(=O)C1CCN(C(=O)c2ccc(-c3ccccc3)cc2)CC1 | inactive | –
CCCCN(C(=O)/C=C/c1ccc(OCC(C)C)c(OCC)c1)c1c(N)n(CCC)c(=O)[nH]c1=O | inconclusive: 14.1 µM [inhibitor, single point] | –
O=C(Nc1nnc(-c2ccccc2)o1)c1cc(-c2cccs2)nc2ccccc12 | inconclusive: 8.91 µM [inhibitor, partial curve] | –
COc1cc([N+](=O)[O-])ccc1N | inconclusive: 0.631 µM [activator, full curve] | –
CC(C)CNC1=CC(=O)CC(c2ccco2)C1 (stereo not given) | inactive | –
CS(=O)(=O)n1nc(-c2ccc(Cl)cc2)nc1N | – | inactive: 17.7% [at 9.22 µM]
O=C(c1cc2nc(-c3ccc(F)cc3)cc(C(F)(F)F)n2n1)N1CCCCC1c1cccnc1 (stereo not given) | active: 8.91 µM | –
COc1ccc2c(c1OC)CN1CCc3cc4c(cc3[C@@H]1[C@@H]2O)OCO4 | inactive | –
COc1ccccc1-c1nnc2sc(COc3ccccc3)nn12 | inconclusive: 7.08 µM [inhibitor, partial curve] | –
Cc1ccc(NCC(=O)c2ccc([N+](=O)[O-])cc2)cc1 | inactive | –
COC(=O)C(CCSC)NC(=O)c1cc2c(n(-c3ccccc3)c1=O)CC(C)(C)CC2=O (stereo not given) | inactive | –
CCn1c(CSCc2ccc(C)cc2)nnc1SCC(=O)N1CCN(c2ccccc2)CC1 | inconclusive: 0.562 µM [inhibitor, partial curve, poor fit] | –
CCOC(=O)C1=C(CC)Nc2ccccc2N=C1NC(=O)c1oc2ccccc2c1C | inconclusive: 35.5 µM [inhibitor, single point] | –

Retrieved by structure from the entries so far (2):
Compound | Potency | activity change, negative = inhibition
COC(=O)C(CCSC)NC(=O)c1cc2c(n(-c3ccccc3)c1=O)CC(C)(C)CC2=O (stereo not given) | inactive | –
CN(Cc1nc(-c2cccnc2)no1)S(=O)(=O)c1ccc(Br)cc1 | active: 22.4 µM | –
